Reference: article PMC3107199

Protein sequences, listed by entry. Tags and fused reporters are not part of them. Lines headed by an entry give the natural chain unless they say otherwise; changes in a name come on top.
UniProt Q95RR6: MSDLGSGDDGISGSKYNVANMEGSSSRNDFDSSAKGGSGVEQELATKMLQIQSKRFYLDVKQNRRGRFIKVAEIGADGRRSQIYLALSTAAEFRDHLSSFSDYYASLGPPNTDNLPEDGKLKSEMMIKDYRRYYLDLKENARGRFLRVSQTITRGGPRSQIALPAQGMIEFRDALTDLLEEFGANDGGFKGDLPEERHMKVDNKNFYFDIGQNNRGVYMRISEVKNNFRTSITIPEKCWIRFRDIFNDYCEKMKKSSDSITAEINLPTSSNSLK
UniProt P19109: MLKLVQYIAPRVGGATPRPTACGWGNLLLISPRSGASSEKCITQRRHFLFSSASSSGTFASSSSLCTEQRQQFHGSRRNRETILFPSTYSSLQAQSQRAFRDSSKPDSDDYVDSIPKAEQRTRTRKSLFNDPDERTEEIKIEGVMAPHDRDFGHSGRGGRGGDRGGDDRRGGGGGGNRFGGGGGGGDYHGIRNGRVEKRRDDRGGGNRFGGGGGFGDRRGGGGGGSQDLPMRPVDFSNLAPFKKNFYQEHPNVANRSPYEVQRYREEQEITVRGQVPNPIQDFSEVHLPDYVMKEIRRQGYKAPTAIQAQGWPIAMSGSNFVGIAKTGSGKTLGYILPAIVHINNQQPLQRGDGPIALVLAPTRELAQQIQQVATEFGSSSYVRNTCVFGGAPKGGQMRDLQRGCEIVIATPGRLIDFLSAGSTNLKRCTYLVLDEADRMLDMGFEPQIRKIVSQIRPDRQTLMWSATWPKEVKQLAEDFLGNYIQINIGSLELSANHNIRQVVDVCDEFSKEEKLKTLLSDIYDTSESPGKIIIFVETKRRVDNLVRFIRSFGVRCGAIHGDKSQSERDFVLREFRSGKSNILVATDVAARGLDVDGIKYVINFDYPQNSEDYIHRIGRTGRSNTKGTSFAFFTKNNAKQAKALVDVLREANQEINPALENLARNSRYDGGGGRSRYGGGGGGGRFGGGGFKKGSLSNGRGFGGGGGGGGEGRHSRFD

Assays:
[1] = target: GST-Pur α fusion protein (Drosophila melanogaster) (UniProt Q95RR6); experiment: pull-down; purified recombinant GST-Pur α or GST incubated overnight with S2 cell extract; Western blot for Rm62 and Hts; samples treated or untreated with RNase; only the target purified
[2] = target: GST-Pur α fusion protein (Drosophila melanogaster) (UniProt Q95RR6); experiment: pull-down; [35S]methionine-labelled in vitro-translated proteins mixed with purified GST-Pur α or GST alone; 150 mM NaCl; samples treated or untreated with RNase; only the target purified

Molecule: endogenous Rm62 (from UniProt P19109 1-719)
binding [1]: binds

B1: in vitro-translated Hts (protein, UniProt Q02645 1-1156)
chain: MTEVEQPPQNGIDPTAGEDDDNSKARPADIEQDMREMERRKRVEAIMGSKLFREELERIVDSARDGGAGASGILQQLSDIVGVPVSRVGSVFKSSNCMVPINDIRGVESMGYAKGEKILRCKLAATFRLLDLYGWTQGLGAQITARLKVDQEYFLVNPYGLLYHEITASALNKVDMQGQIVEQGTTNFGGNKSHFVLHSVVHAARPDIRCAIYIGCSPVVAISSLKTGLLPLTKDACVLGEITTHAYTGLFDEEERNRLVRSLGPNSKVILLTNHGALCCGETIEEAFFAACHIVQACETQLKLLPVGLDNLVLIPEESRKAIYEQSRRPPEDLEKKFAAVAAAEDGAATAEKDAAEAVPKVGSPPKWRVGGAEFEALMRMLDNAGYRTGYIYRHPLIKSDPPKPKNDVELPPAVSSLGYLLEEEELFRQGIWKKGDIRKGGDRSRWLNSPNVYQKVEVLETGTPDPKKITKWVAEGSPTHSTPVRIEDPLQFVPAGTNPREFKRVQQLIKDNRRADKISAGPQSHILEGVTWDEASRLKDATVSQAGDHVVMMGAASKGIIQRGFQHNATVYKAPYAKNPFDNVTDDELNEYKRTVERKKKSVHGEYTDTDFSESEAVLQAGTKKYPQSEPETEHQVIEIQTQQAPVPRQAEVVLSDALVSQLAQKYAFLYSPGQYMYACMKMAPLMHKVYVIHKVEPVSKHNYPPVNDGNMSIHHNESGAGFMAQESSVISSTPVRNALASVSLPEERNHSILGLSSTPYRTISHFGFNCPLITSPTILLHPEHRSIWQRVAEQREKVVSFIDLTTLSLDNRKLLNVVTSTHPTQCQSQSQSFISEKHIQLEVTPPKRKQRVYSATISSGLDDSLDELDSLMSGLAINMPRSREQDSGLYRSYTFLPSNHALPKDTDANNRDQTDRERPEAEQEESFHCAGDSGIGDSTGRRPRLATTSNDSSIQEAEAYTQGKHVKLTLSSSPTPTATQSPATIEILINVSLRNAECVQTVQTHEQEFRAKLERVIDEEIHYISQQLAFKQRQAELHEQQTTSRAPIATPSFTTMHPPAPASSSSMVHRSNSAPELCHTYSYVAVGDLSTKQDQASPQLPAEGEPLNDILSSLEKELERLLNSVVTAHMLHNKAIIHECRARFSQLADGIVSS
modifications: [35S] methionine label
binding [2]: binds

Further lines, results first:

binding [2]: binds
Molecule: in vitro-translated Rm62 (from UniProt P19109 1-719)

binding [1]: binds
B2: endogenous Hts (protein, UniProt Q02645 1-1156)
chain: B1 chain

No constants are given. Whether binding was seen depends on the method and setting. Binding seen in cells or lysates may run through a third protein. A result given as binding can be weak or reduced; the word gives no strength. Each block holds one molecule with its values, some of them ahead of it.
